These are yes or no findings as the source states them, for the method shown. Binding seen in cells or lysates may run through a third protein. These calls come from enrichment with a bait or labelling near it, and not all partners need be listed. Sequences can lack the tags named with a protein.
The substances below were run against T1, Lrmp-Flag (mouse) (UniProt Q60664) (assay: affinity purification with mass spectrometry; WT MEFs transfected with Lrmp-Flag alone or together with ITPR2-HA; Lrmp-Flag pulled down with anti-Flag beads, eluted with 3xFlag peptide, LC-MS/MS).
T1 sequence: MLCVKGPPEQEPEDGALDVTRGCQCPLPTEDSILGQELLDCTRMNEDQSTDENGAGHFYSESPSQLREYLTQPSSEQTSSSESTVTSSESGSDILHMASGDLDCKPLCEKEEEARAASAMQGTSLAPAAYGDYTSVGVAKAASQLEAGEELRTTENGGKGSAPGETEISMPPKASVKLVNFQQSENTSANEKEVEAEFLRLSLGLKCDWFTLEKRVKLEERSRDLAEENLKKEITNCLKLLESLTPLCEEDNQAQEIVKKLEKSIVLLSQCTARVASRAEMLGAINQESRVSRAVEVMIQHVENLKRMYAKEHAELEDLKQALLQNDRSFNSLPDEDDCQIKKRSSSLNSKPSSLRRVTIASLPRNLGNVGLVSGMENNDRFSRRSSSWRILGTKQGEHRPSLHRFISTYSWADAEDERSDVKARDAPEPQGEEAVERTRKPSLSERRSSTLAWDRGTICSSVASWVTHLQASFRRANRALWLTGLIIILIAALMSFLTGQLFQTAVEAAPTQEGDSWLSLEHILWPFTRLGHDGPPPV

Protein sequences, listed by entry. Tags and fused reporters are not part of them.
UniProt P11881: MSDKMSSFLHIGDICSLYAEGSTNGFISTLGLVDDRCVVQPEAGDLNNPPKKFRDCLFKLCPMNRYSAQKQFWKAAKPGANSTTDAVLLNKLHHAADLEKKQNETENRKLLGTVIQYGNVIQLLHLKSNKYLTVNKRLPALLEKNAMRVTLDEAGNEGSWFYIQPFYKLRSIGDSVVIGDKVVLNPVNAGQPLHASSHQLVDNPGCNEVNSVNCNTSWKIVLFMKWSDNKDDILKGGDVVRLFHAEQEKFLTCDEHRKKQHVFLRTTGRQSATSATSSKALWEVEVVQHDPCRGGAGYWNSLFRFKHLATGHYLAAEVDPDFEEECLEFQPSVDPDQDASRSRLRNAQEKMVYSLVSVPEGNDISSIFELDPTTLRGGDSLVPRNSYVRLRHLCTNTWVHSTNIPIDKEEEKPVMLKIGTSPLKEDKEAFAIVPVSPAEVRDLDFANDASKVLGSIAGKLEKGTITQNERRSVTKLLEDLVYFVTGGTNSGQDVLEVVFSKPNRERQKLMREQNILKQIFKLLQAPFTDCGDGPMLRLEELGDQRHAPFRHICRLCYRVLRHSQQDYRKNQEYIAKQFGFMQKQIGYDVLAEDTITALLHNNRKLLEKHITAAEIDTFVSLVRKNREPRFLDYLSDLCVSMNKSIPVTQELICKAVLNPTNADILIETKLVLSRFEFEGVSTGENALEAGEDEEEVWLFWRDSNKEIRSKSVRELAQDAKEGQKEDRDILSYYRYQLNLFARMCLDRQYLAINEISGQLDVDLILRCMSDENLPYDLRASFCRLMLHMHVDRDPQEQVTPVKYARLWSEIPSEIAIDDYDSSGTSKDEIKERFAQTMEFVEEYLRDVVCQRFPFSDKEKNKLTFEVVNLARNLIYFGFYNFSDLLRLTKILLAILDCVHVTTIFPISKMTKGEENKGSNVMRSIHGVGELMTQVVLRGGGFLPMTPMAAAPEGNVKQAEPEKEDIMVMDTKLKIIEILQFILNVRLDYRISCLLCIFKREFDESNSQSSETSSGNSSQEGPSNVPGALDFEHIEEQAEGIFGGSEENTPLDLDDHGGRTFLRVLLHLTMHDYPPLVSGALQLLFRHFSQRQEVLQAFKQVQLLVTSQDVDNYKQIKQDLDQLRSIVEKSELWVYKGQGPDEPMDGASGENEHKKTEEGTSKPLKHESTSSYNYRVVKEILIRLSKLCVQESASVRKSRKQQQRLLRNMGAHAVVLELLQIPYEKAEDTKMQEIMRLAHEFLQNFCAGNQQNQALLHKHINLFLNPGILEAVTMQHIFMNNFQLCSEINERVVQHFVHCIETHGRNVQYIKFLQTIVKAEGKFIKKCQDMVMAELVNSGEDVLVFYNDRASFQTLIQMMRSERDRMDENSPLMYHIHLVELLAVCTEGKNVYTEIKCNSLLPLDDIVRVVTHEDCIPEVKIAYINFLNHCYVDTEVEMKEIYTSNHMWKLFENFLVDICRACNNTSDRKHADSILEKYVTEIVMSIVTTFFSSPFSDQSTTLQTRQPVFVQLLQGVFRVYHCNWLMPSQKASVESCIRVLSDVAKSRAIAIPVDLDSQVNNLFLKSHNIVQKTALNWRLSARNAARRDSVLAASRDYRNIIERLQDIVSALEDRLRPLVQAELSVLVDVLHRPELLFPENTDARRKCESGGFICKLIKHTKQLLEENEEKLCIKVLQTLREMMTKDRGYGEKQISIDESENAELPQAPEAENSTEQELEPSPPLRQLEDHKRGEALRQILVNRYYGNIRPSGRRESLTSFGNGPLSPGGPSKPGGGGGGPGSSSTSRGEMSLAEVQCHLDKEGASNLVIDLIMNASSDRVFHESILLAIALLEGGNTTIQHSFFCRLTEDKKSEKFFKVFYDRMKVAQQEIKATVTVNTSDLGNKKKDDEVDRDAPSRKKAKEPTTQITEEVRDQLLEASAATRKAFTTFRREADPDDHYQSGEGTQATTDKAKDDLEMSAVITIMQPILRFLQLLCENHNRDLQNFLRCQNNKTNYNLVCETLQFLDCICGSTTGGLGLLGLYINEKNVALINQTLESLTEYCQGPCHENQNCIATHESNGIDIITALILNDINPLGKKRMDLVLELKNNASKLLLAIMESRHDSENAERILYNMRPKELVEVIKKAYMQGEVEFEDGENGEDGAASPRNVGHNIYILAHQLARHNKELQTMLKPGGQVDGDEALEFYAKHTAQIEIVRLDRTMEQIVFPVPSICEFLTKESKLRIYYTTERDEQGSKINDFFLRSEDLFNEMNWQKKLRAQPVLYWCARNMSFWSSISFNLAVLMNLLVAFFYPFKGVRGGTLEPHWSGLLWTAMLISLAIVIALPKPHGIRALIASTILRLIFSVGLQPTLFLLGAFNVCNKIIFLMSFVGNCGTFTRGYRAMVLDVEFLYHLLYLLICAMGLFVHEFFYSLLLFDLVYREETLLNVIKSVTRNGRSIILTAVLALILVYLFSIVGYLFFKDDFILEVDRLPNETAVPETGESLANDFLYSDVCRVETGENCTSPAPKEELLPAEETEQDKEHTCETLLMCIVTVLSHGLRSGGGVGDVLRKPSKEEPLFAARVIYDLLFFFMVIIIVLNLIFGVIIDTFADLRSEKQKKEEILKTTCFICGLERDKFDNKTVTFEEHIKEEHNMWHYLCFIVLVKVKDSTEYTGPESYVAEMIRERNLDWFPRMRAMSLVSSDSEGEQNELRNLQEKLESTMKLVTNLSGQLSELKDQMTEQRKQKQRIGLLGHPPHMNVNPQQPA
UniProt Q9Z329: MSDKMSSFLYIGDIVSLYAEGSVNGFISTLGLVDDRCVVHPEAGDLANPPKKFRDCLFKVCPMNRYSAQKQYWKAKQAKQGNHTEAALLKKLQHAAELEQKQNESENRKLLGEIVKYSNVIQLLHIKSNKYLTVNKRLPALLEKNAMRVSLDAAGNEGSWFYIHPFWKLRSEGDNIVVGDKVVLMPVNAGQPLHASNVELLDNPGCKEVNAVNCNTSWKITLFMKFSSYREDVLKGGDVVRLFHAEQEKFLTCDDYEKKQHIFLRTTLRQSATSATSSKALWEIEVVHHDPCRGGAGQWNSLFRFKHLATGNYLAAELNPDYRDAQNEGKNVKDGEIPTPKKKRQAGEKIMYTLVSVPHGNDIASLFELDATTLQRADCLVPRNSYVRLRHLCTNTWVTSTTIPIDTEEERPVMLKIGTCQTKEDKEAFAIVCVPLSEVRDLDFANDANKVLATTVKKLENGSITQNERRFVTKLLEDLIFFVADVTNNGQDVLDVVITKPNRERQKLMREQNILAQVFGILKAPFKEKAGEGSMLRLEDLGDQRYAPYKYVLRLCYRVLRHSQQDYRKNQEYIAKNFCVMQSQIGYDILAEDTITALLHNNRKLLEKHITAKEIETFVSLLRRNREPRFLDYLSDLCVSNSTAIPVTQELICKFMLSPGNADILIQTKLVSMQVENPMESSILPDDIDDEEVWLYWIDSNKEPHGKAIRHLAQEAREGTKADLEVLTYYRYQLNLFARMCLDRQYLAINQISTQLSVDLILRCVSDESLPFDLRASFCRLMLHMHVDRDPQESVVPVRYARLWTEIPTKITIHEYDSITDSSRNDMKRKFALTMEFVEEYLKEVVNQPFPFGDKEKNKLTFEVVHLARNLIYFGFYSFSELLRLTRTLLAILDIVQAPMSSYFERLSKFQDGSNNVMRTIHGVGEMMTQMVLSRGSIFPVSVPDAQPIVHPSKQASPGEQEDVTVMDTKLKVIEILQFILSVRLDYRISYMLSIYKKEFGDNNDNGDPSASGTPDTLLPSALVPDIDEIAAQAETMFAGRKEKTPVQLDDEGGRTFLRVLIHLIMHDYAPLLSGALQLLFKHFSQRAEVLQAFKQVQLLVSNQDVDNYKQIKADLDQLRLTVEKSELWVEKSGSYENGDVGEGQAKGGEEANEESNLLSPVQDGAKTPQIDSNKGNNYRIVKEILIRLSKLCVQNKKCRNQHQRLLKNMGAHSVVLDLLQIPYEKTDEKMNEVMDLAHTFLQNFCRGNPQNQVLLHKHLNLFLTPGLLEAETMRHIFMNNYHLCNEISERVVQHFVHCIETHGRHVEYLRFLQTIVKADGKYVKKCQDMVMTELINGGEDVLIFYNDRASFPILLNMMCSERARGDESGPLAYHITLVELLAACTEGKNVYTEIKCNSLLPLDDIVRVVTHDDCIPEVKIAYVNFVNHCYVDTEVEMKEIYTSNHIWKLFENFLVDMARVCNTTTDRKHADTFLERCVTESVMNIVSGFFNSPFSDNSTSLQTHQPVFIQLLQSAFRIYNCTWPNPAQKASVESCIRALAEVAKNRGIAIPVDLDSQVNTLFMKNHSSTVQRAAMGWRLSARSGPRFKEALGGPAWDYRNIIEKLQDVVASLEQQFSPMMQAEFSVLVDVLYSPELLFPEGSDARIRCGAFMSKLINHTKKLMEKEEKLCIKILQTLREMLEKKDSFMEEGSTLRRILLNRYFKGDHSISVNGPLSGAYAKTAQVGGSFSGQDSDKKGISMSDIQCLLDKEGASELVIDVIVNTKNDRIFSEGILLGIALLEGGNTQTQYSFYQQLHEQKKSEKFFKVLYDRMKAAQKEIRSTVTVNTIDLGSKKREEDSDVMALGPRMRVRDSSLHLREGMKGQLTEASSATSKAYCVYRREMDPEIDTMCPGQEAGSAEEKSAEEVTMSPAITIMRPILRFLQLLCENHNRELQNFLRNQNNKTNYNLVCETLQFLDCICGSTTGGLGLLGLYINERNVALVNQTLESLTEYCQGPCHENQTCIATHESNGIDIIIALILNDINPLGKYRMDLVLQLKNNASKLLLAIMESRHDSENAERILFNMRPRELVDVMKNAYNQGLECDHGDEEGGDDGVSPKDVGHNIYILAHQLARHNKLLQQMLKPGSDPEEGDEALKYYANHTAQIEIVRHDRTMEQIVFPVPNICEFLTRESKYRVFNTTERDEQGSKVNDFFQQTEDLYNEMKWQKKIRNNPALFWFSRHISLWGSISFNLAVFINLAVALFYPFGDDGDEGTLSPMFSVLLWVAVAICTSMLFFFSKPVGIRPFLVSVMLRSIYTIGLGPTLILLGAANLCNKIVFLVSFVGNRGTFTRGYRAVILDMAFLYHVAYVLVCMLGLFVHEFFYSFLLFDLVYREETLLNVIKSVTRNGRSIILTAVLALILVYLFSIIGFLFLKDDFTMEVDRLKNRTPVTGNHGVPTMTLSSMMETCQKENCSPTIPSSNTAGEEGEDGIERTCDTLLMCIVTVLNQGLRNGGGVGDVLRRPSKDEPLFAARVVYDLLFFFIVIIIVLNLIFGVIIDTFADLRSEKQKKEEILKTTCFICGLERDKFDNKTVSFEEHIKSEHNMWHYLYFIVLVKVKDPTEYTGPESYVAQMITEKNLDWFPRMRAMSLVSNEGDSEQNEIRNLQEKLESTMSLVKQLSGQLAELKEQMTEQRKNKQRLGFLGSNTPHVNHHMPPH

Substance	binding
ITPR1 (from UniProt P11881 1-2749) (receptor)	binds
ITPR2 (from UniProt Q9Z329 1-2701) (receptor)	binds
ITPR2-HA (from UniProt Q9Z329 1-2701) (receptor)	binds
ITPR3 (from UniProt P70227 1-2670) (receptor)	binds

— paper PMC8184793
